# In patent US20060205805A1, “Crystalline forms of atorvastatin” (priority 2000, published 2006):
# Where a name gives a salt, the structure may show the parent alone.
# Settings: about 40° C. / about 75% relative humidity for at least about 1 month, or about 25° C. / about 60% relative humidity for at least about 6 months; stable = no more than about 0.01% (w/w) AED formed
structure (smiles),measurement,value
"CC(C)c1c(C(=O)Nc2ccccc2)c(-c2ccccc2)c(-c2ccc(F)cc2)n1CCC(O)C[C@@H](O)CC(=O)O (stereo in doubt) [Form A, [R-(R*,R*)]-2-(4-fluorophenyl)-beta,delta-dihydroxy-5-(1-methylethyl)-3-phenyl-4-[(phenylamino)carbonyl]-1H-pyrrole-1-heptanoic acid calcium salt]",stability against the formation of the impurity AED,stable
